Some of the results follow.
These targets were tested with CS(=O)(=O)c1ccc(-c2cnc(N)c(C(=O)Nc3ccccc3)n2)cc1 (assay: log2 fold change, soluble protein after heating vs DMSO (PISA); higher = thermal stabilisation; K562 cells, 10 uM, 30 min; active = over 0.2 and 3.5 SD of the protein, either way, in both replicates (recomputed)).
In short: (§1)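 For each measurement, 10 μM compound was applied for 30 min to K562 cells at 2×10^6 cells/mL. Aliquots were heated for 3 min across 48°C-58°C, pooled, and extracted in PBS with 0.5% NP-40 at 4°C; the supernatant after 21,000xg for 90 min was soluble protein. This was quantified by TMTpro 16plex LC-MS/MS with channel sums equalised, and thermal stability was reported relative to control samples from duplicates, on a log2 fold-change scale.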

The chains behind the UniProt entries cited, without tags or fusion partners. Where a name states a change or a piece, a line headed by the entry shows the natural chain unless it says otherwise.
UniProt P20936: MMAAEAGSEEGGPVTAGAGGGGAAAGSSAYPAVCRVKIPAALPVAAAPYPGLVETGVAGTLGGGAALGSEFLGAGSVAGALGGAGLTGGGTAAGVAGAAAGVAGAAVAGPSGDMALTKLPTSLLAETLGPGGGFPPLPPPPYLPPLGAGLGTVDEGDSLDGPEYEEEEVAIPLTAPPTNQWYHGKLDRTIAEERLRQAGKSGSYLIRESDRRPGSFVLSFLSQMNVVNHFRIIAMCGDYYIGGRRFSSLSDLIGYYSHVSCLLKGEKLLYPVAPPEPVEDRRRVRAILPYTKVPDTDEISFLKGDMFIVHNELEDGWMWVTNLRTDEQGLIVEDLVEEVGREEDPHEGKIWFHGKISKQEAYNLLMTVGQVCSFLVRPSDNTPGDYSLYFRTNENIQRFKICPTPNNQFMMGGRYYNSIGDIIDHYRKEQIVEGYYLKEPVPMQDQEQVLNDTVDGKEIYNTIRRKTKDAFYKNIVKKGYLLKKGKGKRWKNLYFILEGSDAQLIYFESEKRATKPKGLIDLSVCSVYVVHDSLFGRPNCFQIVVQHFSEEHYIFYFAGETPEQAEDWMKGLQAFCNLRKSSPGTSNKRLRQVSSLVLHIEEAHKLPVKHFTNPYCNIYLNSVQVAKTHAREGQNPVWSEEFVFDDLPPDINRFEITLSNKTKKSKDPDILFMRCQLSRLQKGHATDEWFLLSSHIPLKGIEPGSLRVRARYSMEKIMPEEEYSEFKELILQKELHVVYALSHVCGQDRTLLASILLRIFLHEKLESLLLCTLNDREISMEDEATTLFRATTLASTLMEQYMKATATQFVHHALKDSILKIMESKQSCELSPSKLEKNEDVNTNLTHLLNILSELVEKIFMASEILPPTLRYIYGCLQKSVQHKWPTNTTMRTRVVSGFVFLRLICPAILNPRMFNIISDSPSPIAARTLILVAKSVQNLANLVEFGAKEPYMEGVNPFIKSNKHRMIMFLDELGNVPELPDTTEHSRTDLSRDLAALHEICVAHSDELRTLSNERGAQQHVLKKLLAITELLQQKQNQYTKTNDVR
UniProt Q9UKM9: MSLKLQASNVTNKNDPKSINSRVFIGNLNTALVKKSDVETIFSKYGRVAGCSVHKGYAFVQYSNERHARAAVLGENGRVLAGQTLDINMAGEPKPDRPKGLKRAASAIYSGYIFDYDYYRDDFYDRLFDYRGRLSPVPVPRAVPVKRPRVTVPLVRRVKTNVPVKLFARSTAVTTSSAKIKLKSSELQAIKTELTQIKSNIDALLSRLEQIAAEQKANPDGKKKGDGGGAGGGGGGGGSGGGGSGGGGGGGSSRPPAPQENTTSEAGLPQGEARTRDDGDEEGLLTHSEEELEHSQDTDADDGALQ
UniProt P62491: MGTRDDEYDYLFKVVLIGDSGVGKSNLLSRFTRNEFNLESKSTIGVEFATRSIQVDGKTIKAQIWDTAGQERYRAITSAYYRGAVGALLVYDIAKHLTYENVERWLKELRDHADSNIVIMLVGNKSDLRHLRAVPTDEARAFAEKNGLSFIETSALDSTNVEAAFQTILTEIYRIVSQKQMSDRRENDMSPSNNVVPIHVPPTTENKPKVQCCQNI
UniProt Q86X10: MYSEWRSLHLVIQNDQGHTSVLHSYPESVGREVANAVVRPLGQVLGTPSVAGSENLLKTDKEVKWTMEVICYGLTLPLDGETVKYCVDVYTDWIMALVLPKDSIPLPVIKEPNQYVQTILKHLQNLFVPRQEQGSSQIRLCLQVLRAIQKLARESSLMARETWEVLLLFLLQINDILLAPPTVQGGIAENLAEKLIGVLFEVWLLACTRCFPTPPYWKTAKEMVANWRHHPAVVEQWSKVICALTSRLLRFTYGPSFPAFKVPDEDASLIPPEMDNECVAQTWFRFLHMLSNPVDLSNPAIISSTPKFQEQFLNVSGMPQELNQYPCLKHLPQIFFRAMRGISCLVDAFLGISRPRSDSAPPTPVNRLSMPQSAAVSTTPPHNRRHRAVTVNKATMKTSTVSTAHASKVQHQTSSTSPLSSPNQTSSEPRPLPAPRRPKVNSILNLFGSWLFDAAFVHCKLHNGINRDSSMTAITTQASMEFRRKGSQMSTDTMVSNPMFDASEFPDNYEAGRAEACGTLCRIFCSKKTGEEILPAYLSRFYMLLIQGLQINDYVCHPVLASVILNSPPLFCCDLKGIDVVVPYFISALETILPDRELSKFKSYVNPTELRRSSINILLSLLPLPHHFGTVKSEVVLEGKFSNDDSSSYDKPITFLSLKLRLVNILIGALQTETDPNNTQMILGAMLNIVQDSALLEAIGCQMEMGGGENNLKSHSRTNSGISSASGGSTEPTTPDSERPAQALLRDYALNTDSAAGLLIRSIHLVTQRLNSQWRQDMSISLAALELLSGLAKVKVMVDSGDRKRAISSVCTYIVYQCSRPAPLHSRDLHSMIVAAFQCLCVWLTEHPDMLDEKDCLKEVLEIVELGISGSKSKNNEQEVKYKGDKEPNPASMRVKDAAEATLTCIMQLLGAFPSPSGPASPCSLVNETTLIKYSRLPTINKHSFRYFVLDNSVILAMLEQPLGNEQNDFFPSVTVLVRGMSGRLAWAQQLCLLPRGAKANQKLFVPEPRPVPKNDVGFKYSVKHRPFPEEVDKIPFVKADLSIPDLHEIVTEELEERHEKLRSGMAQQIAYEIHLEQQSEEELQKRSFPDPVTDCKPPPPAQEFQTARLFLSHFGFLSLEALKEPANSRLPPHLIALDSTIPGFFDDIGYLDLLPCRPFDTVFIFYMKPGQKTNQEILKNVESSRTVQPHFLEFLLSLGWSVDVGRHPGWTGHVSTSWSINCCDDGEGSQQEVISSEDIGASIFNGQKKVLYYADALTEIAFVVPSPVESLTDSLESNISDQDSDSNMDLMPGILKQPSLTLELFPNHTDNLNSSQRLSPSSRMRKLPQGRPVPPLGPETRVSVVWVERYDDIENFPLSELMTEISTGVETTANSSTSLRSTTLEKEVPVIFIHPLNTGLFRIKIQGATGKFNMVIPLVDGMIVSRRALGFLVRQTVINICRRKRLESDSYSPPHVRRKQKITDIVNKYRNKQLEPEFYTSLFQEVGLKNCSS
UniProt Q15311: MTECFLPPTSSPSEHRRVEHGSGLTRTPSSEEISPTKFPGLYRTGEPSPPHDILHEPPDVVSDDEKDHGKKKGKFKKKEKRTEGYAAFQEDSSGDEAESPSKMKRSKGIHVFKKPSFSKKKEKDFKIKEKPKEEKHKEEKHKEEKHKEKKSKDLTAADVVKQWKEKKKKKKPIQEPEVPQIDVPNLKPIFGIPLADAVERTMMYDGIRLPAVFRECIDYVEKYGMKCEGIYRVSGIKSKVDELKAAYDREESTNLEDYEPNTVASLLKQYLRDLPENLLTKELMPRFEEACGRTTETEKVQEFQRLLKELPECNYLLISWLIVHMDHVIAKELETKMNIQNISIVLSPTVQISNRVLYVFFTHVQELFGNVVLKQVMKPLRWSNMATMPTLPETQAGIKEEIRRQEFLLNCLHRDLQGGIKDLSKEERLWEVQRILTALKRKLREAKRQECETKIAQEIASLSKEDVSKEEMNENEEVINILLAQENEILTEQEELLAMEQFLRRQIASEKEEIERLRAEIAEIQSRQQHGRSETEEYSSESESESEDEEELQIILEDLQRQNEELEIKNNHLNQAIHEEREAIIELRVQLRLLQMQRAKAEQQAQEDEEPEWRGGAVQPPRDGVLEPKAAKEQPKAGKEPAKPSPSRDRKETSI
UniProt Q9P2N5: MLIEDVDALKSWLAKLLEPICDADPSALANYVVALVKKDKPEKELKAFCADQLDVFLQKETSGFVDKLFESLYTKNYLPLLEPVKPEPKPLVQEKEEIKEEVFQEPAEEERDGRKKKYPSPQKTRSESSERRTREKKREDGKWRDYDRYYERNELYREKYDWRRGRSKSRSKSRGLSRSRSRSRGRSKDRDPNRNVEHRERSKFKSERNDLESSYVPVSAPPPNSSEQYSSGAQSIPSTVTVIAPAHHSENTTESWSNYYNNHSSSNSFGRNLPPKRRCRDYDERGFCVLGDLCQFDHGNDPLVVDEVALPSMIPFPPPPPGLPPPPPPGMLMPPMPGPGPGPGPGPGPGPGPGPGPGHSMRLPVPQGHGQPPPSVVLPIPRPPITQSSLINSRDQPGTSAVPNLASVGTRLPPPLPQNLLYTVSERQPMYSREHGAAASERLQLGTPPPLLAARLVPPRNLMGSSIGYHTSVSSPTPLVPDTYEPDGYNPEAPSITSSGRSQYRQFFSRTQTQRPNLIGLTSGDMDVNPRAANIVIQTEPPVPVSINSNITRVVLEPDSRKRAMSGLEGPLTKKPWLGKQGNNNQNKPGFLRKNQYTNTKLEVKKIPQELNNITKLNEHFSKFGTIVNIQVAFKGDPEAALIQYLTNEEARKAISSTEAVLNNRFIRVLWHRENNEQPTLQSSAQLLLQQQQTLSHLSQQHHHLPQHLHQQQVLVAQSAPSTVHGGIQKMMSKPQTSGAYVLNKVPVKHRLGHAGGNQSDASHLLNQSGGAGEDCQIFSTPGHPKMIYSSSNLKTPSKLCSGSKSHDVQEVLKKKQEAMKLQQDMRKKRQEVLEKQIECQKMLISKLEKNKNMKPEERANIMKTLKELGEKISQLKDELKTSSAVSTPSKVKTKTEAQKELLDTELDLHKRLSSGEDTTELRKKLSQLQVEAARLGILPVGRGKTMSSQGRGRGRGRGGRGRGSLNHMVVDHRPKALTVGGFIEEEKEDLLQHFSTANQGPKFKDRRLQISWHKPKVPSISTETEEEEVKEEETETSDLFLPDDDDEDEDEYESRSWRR
UniProt P62834: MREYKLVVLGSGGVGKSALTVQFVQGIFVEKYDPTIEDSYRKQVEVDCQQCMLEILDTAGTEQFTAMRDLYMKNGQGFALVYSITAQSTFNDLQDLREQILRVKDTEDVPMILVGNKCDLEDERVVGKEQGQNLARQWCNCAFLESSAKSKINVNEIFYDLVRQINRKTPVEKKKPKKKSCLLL
UniProt Q99638: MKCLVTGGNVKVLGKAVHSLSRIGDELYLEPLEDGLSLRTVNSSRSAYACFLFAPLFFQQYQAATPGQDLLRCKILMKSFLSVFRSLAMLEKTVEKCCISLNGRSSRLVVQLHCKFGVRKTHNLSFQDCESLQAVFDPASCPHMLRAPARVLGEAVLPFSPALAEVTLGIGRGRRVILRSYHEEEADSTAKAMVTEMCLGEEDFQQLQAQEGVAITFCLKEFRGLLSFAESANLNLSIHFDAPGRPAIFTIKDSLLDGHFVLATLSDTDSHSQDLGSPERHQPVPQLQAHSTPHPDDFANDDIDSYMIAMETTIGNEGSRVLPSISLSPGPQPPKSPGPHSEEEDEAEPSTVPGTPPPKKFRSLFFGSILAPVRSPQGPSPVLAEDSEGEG
UniProt Q96B01: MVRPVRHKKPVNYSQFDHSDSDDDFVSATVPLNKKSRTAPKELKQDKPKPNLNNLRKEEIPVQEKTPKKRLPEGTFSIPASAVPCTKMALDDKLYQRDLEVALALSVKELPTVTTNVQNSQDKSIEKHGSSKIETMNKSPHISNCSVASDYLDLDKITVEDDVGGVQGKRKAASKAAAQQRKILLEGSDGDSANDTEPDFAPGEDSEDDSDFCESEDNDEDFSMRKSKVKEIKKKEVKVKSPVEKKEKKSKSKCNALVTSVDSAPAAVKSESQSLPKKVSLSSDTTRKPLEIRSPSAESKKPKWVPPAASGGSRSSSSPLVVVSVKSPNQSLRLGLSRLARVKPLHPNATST
UniProt Q9H0H5: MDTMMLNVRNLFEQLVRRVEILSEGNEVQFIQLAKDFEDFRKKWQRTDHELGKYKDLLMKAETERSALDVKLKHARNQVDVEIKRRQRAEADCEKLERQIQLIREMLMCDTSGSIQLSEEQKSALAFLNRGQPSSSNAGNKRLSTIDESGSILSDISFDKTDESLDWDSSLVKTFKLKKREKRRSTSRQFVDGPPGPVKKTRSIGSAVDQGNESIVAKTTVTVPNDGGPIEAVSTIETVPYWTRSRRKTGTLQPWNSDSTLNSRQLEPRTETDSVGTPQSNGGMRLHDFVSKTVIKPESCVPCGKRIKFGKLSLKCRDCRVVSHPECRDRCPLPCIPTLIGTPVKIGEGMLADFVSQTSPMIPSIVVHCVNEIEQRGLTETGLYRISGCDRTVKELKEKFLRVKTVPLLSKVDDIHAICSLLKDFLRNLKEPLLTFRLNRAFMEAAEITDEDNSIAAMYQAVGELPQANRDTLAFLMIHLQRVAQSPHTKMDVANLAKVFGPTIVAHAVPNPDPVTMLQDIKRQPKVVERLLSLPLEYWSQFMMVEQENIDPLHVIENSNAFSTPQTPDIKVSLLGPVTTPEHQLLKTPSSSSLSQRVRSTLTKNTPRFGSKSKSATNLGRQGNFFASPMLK
UniProt Q53S08: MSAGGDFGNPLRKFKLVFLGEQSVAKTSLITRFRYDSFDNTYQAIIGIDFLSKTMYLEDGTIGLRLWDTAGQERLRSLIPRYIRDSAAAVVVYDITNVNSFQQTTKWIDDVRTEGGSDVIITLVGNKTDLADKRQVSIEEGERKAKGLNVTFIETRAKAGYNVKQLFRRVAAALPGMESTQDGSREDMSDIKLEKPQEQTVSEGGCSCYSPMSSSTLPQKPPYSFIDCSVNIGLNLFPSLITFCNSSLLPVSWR

Target | log2 fold change
RASA1 (UniProt P20936) | inactive: 0.105
RAB11FIP1 (UniProt Q6WKZ4) | inactive: -0.071
RAB8B (UniProt Q92930) | inactive: -0.212
RAP1B (UniProt F5GZG1) | inactive: 0.115
RBM22 (UniProt Q9NW64) | inactive: -0.045
RALY (UniProt Q9UKM9) | inactive: -0.149
RASA2 (UniProt Q15283) | inactive: 0.056
RAB11A (UniProt P62491) | inactive: 0.035
RALGAPB (UniProt Q86X10) | inactive: 0.263
RALGAPA1 isoform 6 (UniProt Q6GYQ0) | inactive: 0.079
RALBP1 (UniProt Q15311) | inactive: 0.038
RANBP2 (UniProt P49792) | inactive: -0.016
RBM27 (UniProt Q9P2N5) | inactive: 0.006
RB1CC1 (UniProt Q8TDY2) | inactive: 0.062
RACK1 (UniProt D6RF23) | inactive: 0.119
RAD51 (UniProt Q06609) | inactive: 0.005
RAP1A (UniProt P62834) | inactive: 0.021

Target | log2 fold change
RASSF5 (UniProt Q8WWW0) | inactive: 0
RAPGEF6 isoform 4 (UniProt Q8TEU7) | inactive: 0.027
RAB31 (UniProt Q13636) | inactive: 0.037
RAD9A (UniProt Q99638) | inactive: 0.014
RAD51AP1 (UniProt Q96B01) | inactive: -0.023
RB1 (UniProt P06400) | inactive: 0.041
RANBP10 (UniProt Q6VN20) | inactive: -0.118
RACGAP1 (UniProt Q9H0H5) | inactive: 0.014
RAB6D (UniProt Q53S08) | inactive: 0.013
RAN (UniProt P62826) | inactive: 0.031
RAB3GAP1 (UniProt Q15042) | inactive: 0.019
RAPGEF2, A0A2R8YGD3 | inactive: 0.055
RALA (UniProt P11233) | inactive: 0.026
RANGAP1 (UniProt P46060) | inactive: 0.025
RAB8A isoform 2 (UniProt P61006) | inactive: -0.001
RAC1 (UniProt P63000) | inactive: -0.094

What follows are targets tested with C[C@@H](Oc1cc(-c2cnn(C3CCNCC3)c2)cnc1N)c1c(Cl)ccc(F)c1Cl [crizotinib] in the same assay as above.
In short: as §1

Target | log2 fold change
RASA1 (UniProt P20936) | inactive: -0.098
RAB11FIP1 (UniProt Q6WKZ4) | inactive: -0.096
RAB8B (UniProt Q92930) | inactive: 0
RAP1B (UniProt F5GZG1) | inactive: 0.011
RBM22 (UniProt Q9NW64) | inactive: 0.061
RALY (UniProt Q9UKM9) | inactive: -0.068
RASA2 (UniProt Q15283) | inactive: 0.117
RAB11A (UniProt P62491) | inactive: 0.018
RALGAPB (UniProt Q86X10) | inactive: -0.132
RALGAPA1 isoform 6 (UniProt Q6GYQ0) | inactive: 0.001
RALBP1 (UniProt Q15311) | inactive: 0.017
RANBP2 (UniProt P49792) | inactive: 0.009
RBM27 (UniProt Q9P2N5) | inactive: 0.021
RB1CC1 (UniProt Q8TDY2) | inactive: 0.041
RACK1 (UniProt D6RF23) | inactive: 0
RAD51 (UniProt Q06609) | inactive: -0.061
RAP1A (UniProt P62834) | inactive: 0.062

Target | log2 fold change
RASSF5 (UniProt Q8WWW0) | inactive: 0.046
RAPGEF6 isoform 4 (UniProt Q8TEU7) | inactive: -0.147
RAB31 (UniProt Q13636) | inactive: 0.103
RAD9A (UniProt Q99638) | inactive: 0.07
RAD51AP1 (UniProt Q96B01) | inactive: 0.011
RB1 (UniProt P06400) | inactive: -0.112
RANBP10 (UniProt Q6VN20) | inactive: 0.008
RACGAP1 (UniProt Q9H0H5) | inactive: -0.215
RAB6D (UniProt Q53S08) | inactive: 0.018
RAN (UniProt P62826) | inactive: 0.043
RAB3GAP1 (UniProt Q15042) | inactive: -0.071
RAPGEF2, A0A2R8YGD3 | inactive: -0.021
RALA (UniProt P11233) | inactive: 0.112
RANGAP1 (UniProt P46060) | inactive: -0.06
RAB8A isoform 2 (UniProt P61006) | inactive: 0.04
RAC1 (UniProt P63000) | inactive: 0

Each target was assayed with C[C@@H]1COCCN1C2=NC(=NC(=C2)C3(CC3)S(=O)(=O)C)C4=C5C=CNC5=CC=C4 in the same assay as above.
In short: as §1

Target | log2 fold change
RASA1 (UniProt P20936) | inactive: 0.073
RAB11FIP1 (UniProt Q6WKZ4) | inactive: -0.001
RAB8B (UniProt Q92930) | inactive: -0.046
RAP1B (UniProt F5GZG1) | inactive: 0.008
RBM22 (UniProt Q9NW64) | inactive: -0.053
RALY (UniProt Q9UKM9) | inactive: -0.138
RASA2 (UniProt Q15283) | inactive: 0.131
RAB11A (UniProt P62491) | inactive: -0.055
RALGAPB (UniProt Q86X10) | inactive: 0.014
RALGAPA1 isoform 6 (UniProt Q6GYQ0) | inactive: -0.098
RALBP1 (UniProt Q15311) | inactive: -0.148
RANBP2 (UniProt P49792) | inactive: -0.011
RBM27 (UniProt Q9P2N5) | inactive: 0.026
RB1CC1 (UniProt Q8TDY2) | inactive: -0.006
RACK1 (UniProt D6RF23) | inactive: 0.047
RAD51 (UniProt Q06609) | inactive: -0.079
RAP1A (UniProt P62834) | inactive: 0.011

Target | log2 fold change
RASSF5 (UniProt Q8WWW0) | inactive: -0.165
RAPGEF6 isoform 4 (UniProt Q8TEU7) | inactive: -0.048
RAB31 (UniProt Q13636) | inactive: 0.053
RAD9A (UniProt Q99638) | inactive: 0.042
RAD51AP1 (UniProt Q96B01) | inactive: -0.025
RB1 (UniProt P06400) | inactive: 0.117
RANBP10 (UniProt Q6VN20) | inactive: -0.147
RACGAP1 (UniProt Q9H0H5) | inactive: 0.146
RAB6D (UniProt Q53S08) | inactive: 0.048
RAN (UniProt P62826) | inactive: -0.023
RAB3GAP1 (UniProt Q15042) | inactive: -0.013
RAPGEF2, A0A2R8YGD3 | inactive: -0.026
RALA (UniProt P11233) | inactive: 0.088
RANGAP1 (UniProt P46060) | inactive: 0.045
RAB8A isoform 2 (UniProt P61006) | inactive: -0.007
RAC1 (UniProt P63000) | inactive: -0.04

Source: the supplement of paper PMC10849652
